Several values for one entry are separate records, joined by “and”; a condition that tells them apart may be missing. Equal values may be shown once. Inconclusive results, whose numbers are uncertain, are shown with a selection of clear calls. For part of these data: Potencies beside an inconclusive call are fits to weak or partial responses and may not hold up. Some structures have more than one record in an assay (separate samples or runs), and their calls can disagree. Activity calls are given as the source filed them. How the source made its calls: active means hit-call score of the fitted dose curve at least 0.9, where 1 is the maximum; inconclusive means response in the unintended direction; inactive means score below 0.9.
Columns and labels:
[1] = molecular target: Retinoic acid receptor alpha (Homo sapiens) (UniProt P10276); test: NVS_NR_hRARa_Agonist: NovaScreen (NVS) Nuclear Receptor Binding Assay for human Retinoic Acid Alpha Receptor Agonism (RAR) (AID 2283361)
Outline: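 TR-FRET signal, 2 h post-dosing; cell-free extracted protein; DMSO = baseline, positive fitting direction; 25 uM single-point duplicate, then concentration series for actives.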

The chains behind the UniProt entries cited, without tags or fusion partners. Where a name states a change or a piece, a line headed by the entry shows the natural chain unless it says otherwise.
UniProt P10276, whole entry, looked up: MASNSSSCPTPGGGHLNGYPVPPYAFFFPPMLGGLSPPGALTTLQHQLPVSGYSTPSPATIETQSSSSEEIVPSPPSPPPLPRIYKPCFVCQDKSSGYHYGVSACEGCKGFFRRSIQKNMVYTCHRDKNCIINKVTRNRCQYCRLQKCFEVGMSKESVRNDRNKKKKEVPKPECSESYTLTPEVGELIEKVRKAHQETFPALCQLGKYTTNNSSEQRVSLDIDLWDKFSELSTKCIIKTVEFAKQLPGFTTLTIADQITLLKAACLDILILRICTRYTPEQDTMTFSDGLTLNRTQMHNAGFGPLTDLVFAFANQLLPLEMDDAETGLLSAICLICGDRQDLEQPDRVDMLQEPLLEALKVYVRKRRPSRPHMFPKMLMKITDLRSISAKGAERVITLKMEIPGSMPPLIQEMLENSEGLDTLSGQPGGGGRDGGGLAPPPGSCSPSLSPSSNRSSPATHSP
UniProt P10827: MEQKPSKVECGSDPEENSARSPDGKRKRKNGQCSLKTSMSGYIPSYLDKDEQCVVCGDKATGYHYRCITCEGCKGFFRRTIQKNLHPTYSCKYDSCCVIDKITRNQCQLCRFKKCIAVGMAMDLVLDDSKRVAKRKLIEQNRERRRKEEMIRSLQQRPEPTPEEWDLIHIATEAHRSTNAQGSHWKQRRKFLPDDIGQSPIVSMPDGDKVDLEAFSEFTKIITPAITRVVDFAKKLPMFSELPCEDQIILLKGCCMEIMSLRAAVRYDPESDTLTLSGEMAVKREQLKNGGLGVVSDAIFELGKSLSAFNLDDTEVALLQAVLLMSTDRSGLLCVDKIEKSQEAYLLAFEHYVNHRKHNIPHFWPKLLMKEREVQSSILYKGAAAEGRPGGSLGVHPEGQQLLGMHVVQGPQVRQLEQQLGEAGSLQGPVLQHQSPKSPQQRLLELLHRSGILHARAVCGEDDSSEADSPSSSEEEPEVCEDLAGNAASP
UniProt P31652, whole entry, looked up: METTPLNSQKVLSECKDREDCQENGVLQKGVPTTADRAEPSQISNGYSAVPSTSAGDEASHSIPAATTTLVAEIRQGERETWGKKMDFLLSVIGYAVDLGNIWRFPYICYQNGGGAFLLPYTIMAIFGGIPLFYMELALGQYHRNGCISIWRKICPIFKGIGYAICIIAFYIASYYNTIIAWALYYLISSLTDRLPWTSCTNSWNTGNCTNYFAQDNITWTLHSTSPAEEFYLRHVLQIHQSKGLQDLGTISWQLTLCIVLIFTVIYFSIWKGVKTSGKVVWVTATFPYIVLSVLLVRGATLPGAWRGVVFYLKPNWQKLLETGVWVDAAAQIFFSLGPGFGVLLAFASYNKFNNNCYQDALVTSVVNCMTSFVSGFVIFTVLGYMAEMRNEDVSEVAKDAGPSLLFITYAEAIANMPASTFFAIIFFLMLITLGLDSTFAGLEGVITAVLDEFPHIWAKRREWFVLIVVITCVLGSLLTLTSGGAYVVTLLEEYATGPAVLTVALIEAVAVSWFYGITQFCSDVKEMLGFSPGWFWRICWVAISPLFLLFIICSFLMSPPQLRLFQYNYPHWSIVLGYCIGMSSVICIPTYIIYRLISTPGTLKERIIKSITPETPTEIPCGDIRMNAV
UniProt P19785, whole entry, looked up: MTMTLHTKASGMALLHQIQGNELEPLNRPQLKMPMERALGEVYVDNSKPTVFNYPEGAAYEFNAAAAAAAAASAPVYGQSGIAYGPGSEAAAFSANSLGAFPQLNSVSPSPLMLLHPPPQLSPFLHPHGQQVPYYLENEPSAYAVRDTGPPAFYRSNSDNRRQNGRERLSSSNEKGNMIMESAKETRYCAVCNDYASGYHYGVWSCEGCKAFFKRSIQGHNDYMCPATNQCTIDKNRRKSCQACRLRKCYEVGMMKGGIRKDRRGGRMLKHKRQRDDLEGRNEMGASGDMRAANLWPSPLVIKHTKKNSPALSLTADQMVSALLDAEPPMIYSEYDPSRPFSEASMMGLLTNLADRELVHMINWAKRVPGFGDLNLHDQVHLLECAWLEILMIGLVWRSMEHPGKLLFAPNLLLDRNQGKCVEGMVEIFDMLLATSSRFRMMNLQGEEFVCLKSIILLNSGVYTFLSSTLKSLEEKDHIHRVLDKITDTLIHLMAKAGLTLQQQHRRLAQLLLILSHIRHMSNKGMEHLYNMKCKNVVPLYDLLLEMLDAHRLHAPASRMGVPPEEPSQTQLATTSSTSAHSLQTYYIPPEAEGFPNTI
UniProt P37231: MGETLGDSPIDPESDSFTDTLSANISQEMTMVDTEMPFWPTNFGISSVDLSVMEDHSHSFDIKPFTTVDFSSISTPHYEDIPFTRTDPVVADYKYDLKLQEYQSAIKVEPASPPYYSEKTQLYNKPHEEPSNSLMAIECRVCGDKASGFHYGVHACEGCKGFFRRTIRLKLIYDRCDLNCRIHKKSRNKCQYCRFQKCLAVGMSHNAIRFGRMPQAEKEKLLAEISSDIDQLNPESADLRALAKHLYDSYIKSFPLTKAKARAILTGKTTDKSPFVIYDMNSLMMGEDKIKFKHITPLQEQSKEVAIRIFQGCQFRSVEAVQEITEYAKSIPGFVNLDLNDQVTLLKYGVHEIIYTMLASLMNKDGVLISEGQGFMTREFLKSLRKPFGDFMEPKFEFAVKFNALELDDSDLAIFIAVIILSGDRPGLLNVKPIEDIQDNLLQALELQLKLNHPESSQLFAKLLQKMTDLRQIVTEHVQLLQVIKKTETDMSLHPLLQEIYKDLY
UniProt O75469: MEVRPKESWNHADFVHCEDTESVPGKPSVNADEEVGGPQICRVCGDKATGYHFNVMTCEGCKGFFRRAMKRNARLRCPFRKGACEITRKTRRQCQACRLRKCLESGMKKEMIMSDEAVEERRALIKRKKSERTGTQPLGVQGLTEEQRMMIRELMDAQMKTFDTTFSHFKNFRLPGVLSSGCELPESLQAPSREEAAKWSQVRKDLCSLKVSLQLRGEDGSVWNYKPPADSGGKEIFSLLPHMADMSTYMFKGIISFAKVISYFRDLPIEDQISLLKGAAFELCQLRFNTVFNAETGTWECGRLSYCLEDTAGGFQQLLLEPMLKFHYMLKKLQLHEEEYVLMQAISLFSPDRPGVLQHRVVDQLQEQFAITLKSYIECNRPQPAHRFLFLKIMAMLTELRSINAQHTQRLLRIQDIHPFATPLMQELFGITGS
UniProt P10275: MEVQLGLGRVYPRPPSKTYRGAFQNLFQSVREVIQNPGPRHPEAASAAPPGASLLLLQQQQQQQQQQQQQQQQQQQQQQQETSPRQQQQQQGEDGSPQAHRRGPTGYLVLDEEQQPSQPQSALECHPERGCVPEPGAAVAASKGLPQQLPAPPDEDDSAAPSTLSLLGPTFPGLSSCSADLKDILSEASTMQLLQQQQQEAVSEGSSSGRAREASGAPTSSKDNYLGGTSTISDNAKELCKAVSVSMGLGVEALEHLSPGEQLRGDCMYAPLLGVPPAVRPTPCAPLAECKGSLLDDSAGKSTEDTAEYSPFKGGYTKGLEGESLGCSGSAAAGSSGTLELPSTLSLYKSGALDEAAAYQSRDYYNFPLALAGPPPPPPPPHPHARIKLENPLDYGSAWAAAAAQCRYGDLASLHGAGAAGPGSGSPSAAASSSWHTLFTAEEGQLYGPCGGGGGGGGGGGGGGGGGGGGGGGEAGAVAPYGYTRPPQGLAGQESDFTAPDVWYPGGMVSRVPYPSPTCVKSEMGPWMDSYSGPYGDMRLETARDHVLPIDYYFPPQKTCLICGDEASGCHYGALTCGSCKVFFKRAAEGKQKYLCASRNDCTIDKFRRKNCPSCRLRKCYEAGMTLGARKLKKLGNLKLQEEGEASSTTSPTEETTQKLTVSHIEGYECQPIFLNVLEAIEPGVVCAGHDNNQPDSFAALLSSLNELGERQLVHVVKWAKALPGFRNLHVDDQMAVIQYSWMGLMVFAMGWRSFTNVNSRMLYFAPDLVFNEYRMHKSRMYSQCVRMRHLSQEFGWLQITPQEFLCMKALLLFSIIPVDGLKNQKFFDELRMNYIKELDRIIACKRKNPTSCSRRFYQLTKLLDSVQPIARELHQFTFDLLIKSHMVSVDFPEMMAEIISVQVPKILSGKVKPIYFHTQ
UniProt P15207: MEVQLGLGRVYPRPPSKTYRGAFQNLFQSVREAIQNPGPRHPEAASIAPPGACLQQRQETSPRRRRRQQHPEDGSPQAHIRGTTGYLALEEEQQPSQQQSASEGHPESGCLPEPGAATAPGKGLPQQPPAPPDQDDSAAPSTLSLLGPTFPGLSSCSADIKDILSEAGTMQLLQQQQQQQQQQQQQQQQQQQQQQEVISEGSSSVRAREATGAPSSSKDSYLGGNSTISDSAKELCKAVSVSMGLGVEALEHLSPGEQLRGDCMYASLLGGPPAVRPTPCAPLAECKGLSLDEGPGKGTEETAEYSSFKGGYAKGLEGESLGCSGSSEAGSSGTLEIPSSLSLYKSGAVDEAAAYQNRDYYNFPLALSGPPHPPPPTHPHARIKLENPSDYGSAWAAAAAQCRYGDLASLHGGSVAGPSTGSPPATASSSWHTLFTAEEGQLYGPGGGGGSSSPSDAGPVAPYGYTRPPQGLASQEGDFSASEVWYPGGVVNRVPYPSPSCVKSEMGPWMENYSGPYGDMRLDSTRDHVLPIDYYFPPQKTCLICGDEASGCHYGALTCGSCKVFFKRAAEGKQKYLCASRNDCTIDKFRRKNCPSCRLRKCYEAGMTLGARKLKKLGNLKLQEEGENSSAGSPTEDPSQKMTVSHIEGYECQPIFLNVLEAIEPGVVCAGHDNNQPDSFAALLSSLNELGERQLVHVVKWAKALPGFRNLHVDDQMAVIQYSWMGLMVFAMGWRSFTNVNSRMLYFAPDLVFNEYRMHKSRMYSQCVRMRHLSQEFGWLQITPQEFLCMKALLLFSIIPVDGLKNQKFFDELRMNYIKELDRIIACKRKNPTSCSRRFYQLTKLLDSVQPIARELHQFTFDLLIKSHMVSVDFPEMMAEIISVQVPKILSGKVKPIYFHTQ
UniProt P23975, whole entry, looked up: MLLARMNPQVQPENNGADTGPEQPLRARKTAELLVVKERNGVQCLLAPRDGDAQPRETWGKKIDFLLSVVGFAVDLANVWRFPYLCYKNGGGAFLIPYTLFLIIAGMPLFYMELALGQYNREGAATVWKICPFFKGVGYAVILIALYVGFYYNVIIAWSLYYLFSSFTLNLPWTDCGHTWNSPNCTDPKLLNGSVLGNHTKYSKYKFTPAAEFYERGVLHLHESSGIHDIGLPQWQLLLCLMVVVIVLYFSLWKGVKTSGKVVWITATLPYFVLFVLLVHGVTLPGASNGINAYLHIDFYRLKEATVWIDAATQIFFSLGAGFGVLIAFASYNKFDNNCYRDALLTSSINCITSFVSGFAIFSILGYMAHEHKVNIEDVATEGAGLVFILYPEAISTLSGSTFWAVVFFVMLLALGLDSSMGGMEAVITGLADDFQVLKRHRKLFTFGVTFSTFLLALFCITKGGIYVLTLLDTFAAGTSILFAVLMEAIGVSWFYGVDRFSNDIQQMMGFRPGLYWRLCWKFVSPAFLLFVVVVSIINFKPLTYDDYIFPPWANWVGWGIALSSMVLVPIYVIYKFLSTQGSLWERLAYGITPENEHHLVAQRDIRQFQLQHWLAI
UniProt Q01959, whole entry, looked up: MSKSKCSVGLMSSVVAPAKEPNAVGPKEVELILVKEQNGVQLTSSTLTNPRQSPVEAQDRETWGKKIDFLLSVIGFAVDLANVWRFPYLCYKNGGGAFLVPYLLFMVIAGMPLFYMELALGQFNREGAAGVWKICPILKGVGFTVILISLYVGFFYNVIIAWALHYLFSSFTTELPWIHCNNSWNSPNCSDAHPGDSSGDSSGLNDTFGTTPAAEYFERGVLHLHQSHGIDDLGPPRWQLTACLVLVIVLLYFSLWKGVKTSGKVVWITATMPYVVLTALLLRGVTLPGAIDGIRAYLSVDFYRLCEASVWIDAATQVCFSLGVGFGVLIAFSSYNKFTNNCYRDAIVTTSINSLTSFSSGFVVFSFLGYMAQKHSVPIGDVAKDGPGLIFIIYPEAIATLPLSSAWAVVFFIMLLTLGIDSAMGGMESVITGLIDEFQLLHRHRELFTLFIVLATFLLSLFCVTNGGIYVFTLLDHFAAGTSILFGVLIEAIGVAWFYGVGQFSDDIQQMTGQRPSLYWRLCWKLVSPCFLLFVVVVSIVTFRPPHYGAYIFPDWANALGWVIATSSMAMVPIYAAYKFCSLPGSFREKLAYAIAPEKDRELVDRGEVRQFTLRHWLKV

[2] = molecular target: human Thyroid Receptor Alpha (TRa), THRA (gene 7067) (UniProt P10827); test: NVS_NR_hTRa_Antagonist: NovaScreen (NVS) Nuclear Receptor Binding Assay for human Thyroid Receptor Alpha Antagonism (TRa) (AID 2283362);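 further: activity is loss of signal relative to DMSO baseline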
Outline: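 Cell-free AlphaLISA chemiluminescent binding read 1 h after dosing, antagonist mode; signal loss versus DMSO baseline. Primary screen in duplicate at 25 uM, then concentration series for actives.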

[3] = molecular target: rat Serotonin Transporter (SERT), Slc6a4 (gene 25553) (UniProt P31652); test: NVS_TR_rSERT: NovaScreen (NVS) Transporter Assay for rat Serotonin Transporter (SERT) (AID 2283375)
Outline: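 Rat forebrain membranes; radioligand displacement at SERT read by filter-based scintillation counting, 1 h after dosing. Screened in duplicate at 25 uM, actives then run in concentration series; loss of signal versus DMSO baseline.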

[4] = molecular target: mouse Estrogen Receptor alpha (Era), Esr1 (gene 13982) (UniProt P19785); test: NVS_NR_mERa: NovaScreen (NVS) Nuclear Receptor Binding Assay for mouse Estrogen Receptor alpha (Era) (AID 2283378);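 further: hit means loss of bound radioligand signal relative to DMSO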
Outline: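 Cell-free radioligand competitive displacement binding, read by filter-based scintillation counting 18 h after dosing. Primary screen run in duplicate at 25 uM, actives retested in concentration series; loss of signal versus DMSO.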

[5] = molecular target: Peroxisome proliferator-activated receptor gamma (Homo sapiens) (UniProt P37231); test: NVS_NR_hPPARg: NovaScreen (NVS) Nuclear Receptor Binding Assay for human Peroxisome Proliferator-activated Receptor gamma (PPARg) (AID 2283370)
Outline: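 Cell-free fluorescence polarization binding to human PPARg protein, read 2 h after dosing. Primary screen in duplicate at 25 uM, actives followed in concentration series; loss of signal relative to DMSO scored.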

[6] = molecular target: Nuclear receptor subfamily 1 group I member 2 (Homo sapiens) (UniProt O75469); test: NVS_NR_hPXR: NovaScreen (NVS) Nuclear Receptor Binding Assay for human Pregnane X Receptor (PXR) (AID 2283365);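 further: a drop in FRET signal versus DMSO baseline means the compound binds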
Outline: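 Cell-free TR-FRET binding assay with extracted human PXR protein, read 2 h after dosing. Primary screen run in duplicate at 25 uM, actives followed in concentration series; loss of signal fitted against DMSO baseline.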

[7] = molecular target: Bile acid receptor (Homo sapiens) (UniProt Q96RI1); test: OT_FXR_FXRSRC1_1440: Odyssey Thera (OT) 24-hour HEK293T Protein-Complementation Assay for Farnesoid X receptor/SRC-1 Co-activator (AID 2283384)
Outline: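 Single endpoint, analysed for increased fluorescence against DMSO controls. HEK293T cells carrying FXR and SRC-1 linked to complementary reporter halves were exposed to chemicals for 24 h before reading.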

[8] = molecular target: Agonist Androgen Response Element (ARE), AR (gene 367) (UniProt P10275); test: OT_AR_ARELUC_AG_1440: Odyssey Thera (OT) 24-hour CHO-K1 Luciferase Assay for Agonist Androgen Response Element (ARE) (AID 2283379)
Outline: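 Gain-of-signal reporter endpoint: cells (CHO-K1, hamster) are treated 24 h, luciferin/ATP reagent added, and luminescence compared with DMSO baseline.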

[9] = molecular target: Bile acid receptor (Homo sapiens) (UniProt Q96RI1); test: OT_FXR_FXRSRC1_0480: Odyssey Thera (OT) 8-hour HEK293T Protein-Complementation Assay for Farnesoid X receptor/SRC-1 Co-activator (AID 2283383)
Outline: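 Readings were taken 8 h after dosing HEK293T cells in a split-reporter complementation format pairing FXR with SRC-1. Increased fluorescence relative to DMSO-treated wells defined activity.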

[10] = molecular target: rat Androgen Receptor (AR), Ar (gene 24208) (UniProt P15207); test: NVS_NR_rAR: NovaScreen (NVS) Nuclear Receptor Binding Assay for rat Androgen Receptor (AR) (AID 2283366)
Outline: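 Actives from a duplicate single-concentration (25 uM) primary run went on to concentration series. Displacement of radioligand was counted by filtration and scintillation, 18 h post-dose, using prostate extracts from testosterone-pretreated rats, with DMSO as baseline.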

[11] = system: guinea pig Dopamine Transporter (DAT), gene 100714898; test: NVS_TR_gDAT: NovaScreen (NVS) Transporter Assay for guinea pig Dopamine Transporter (DAT) (AID 2283369);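 further: active compounds lower bound radioligand signal relative to DMSO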
Outline: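 Guinea pig striatal membranes, cell-free radioligand binding with filter-based scintillation counting, read 2 h after dosing. Loss of signal versus DMSO baseline; single-concentration primary (25 uM) then concentration-response up to 50 uM.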

[12] = molecular target: human Norepinephrine Transporter (NET), SLC6A2 (gene 6530) (UniProt P23975); test: NVS_TR_hNET: NovaScreen (NVS) Transporter Assay for human Norepinephrine Transporter (NET) (AID 2283377);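 further: cell-free membrane protein extracted from CHO cells expressing human NET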
Outline: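 CHO cell extracts expressing the transporter; tritiated or iodinated tracer displaced competitively; filtration plus scintillation readout at 1 h. Single-point duplicates at 25 uM, concentration series for follow-up; activity = signal drop relative to DMSO.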

[13] = molecular target: human Dopamine Transporter (DAT), SLC6A3 (gene 6531) (UniProt Q01959); test: NVS_TR_hDAT: NovaScreen (NVS) Transporter Assay for human Dopamine Transporter (DAT) (AID 2283374);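 further: activity means loss of bound radioligand signal relative to DMSO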
Outline: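 hDAT membranes + tritiated/iodinated radioligand, competitive displacement; 1 h; filter scintillation readout. Single conc 25 uM (duplicate), then conc-response for actives. DMSO = negative control.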

For `CCN(CC)CCNc1ccc(CNC=O)c2sc3ccc(OC)cc3c(=O)c12`, the AC50 [1] was active: 8.9 µM, the AC50 [2] was active: 15.1 µM and the AC50 [3] was inconclusive: 0.0844 µM. For the same compound, the AC50 [4] was active: 1.37 µM.

`OC[C@H]1O[C@@H](O[C@H]2[C@H](O)[C@@H](O)[C@H](O)O[C@@H]2CO)[C@H](O)[C@@H](O)[C@H]1O` was tested, and the AC50 [1] was inconclusive: 25 µM.

`CO[Si](OC)(OC)c1ccccc1` was tested, and the AC50 [1] was inconclusive: 0.0869 µM and the AC50 [5] was inconclusive: 25 µM.

`c1ccc2cc3c(ccc4ccccc43)cc2c1` was tested, and the AC50 [1] was inconclusive: 25 µM and inconclusive: 216 nM and inconclusive: 45.8 µM, the outcome [6] was “inactive” and the AC50 [5] was inconclusive: 0.268 µM. For the same compound, the AC50 [4] was inconclusive: 25 µM.

With `C[C@]12C[C@H](O)[C@H]3[C@@H](CCC4=CC(=O)CC[C@@]43C)[C@@H]1CC[C@@H]2C(=O)CO` the AC50 [1] was inconclusive: 25 µM, the outcome [1] was “inactive” and the AC50 [6] was inconclusive: 25 µM. For the same compound, the AC50 [4] was inconclusive: 25 µM and inconclusive: 1 µM, the outcome [4] was “inactive” and the AC50 [7] was active: 16.8 µM. For the same compound, the outcome [7] was “inactive”.

For `CC[C@H]1CC[C@H](NCc2cc3c(cc2OC)[C@H]2C[C@H]2C(=O)N3C)[C@H](c2ccccc2)N1`, the outcome [1] was “inactive” and the AC50 [5] was inconclusive: 0.107 µM.

In the case of `O=c1c(-c2ccc(O)cc2)coc2cc(O)ccc12`, the AC50 [1] is reported as active: 1.06 µM and active: 6.6 µM, the AC50 [5] is reported as inconclusive: 0.154 µM and the AC50 [4] is reported as active: 421 nM [middle of 4 runs]. The AC50 [8] was inconclusive: 50 µM, the AC50 [9] was active: 36.7 µM and active: 37.1 µM and the outcome [9] was “inactive”. For the same compound, the AC50 [7] was active: 48.1 µM and active: 33.8 µM and active: 30.5 µM.

With `C[C@]12CC[C@H]3C(=CCc4cc(O)ccc43)[C@@H]1CCC2=O` the AC50 [1] was inconclusive: 25 µM, the AC50 [6] was inconclusive: 6.03 µM and the AC50 [10] was inconclusive: 1.44 µM and inconclusive: 4.06 µM. The AC50 [4] was inconclusive: 0.114 µM.

In the case of `c1ccc2ccccc2c1`, the outcome [1] is reported as “inactive”, the AC50 [9] is reported as inconclusive: 50 µM and the outcome [7] is reported as “inactive”.

In the case of `CCCCCCCOC(=O)c1ccc(O)cc1`, the AC50 [1] is reported as inconclusive: 0.115 µM, the AC50 [5] is reported as active: 12.3 µM and the AC50 [9] is reported as inconclusive: 88.4 µM. For the same compound, the AC50 [7] was inconclusive: 82.7 µM.

For `O=C(Nc1ccc2c(O)c(N=Nc3ccc(N=Nc4ccc(S(=O)(=O)O)cc4)cc3)c(S(=O)(=O)O)cc2c1)c1ccccc1`, the AC50 [2] was active: 9.08 µM.

For `CCCOc1ccc(S(=O)(=O)N2CCN(CC)CC2)cc1-c1nc2c(CC)n(Cc3ccccn3)nc2c(=O)[nH]1`, the AC50 [1] was inconclusive: 1.59 µM and the AC50 [5] was inconclusive: 0.0807 µM.

With `C=C[Si](C)(C)O[Si](C)(C)C=C` the AC50 [1] was inconclusive: 0.131 µM.

In the case of `CCN=c1cc2oc3cc(NCC)c(C)cc3c(-c3ccccc3C(=O)OCC)c-2cc1C`, the AC50 [1] is reported as active: 18.1 µM, the AC50 [4] is reported as active: 25 µM and the AC50 [9] is reported as active: 1.36 µM. The outcome [7] was “inactive”.

For `CCCCCCCC[N+](C)(CCCCCCCC)CCCCCCCC`, the AC50 [1] was active: 4.37 µM and the AC50 [9] was inconclusive: 3.1 µM.

`CC(C)c1ccc(O)c(C(C)C)c1` was tested, and the AC50 [1] was inconclusive: 25 µM, the AC50 [6] was inconclusive: 25 µM and the AC50 [4] was inconclusive: 25 µM.

For `c1ccc2c(c1)ccc1cc3c(ccc4ccccc43)cc12`, the AC50 [1] was inconclusive: 0.067 µM, the AC50 [6] was inconclusive: 0.272 µM and the AC50 [4] was inconclusive: 9.79 µM. For the same compound, the outcome [7] was “inactive”.

For `CCN(CC)CCOc1ccc(C(=C(Cl)c2ccccc2)c2ccccc2)cc1`, the AC50 [1] was active: 25.9 µM and active: 21 µM, the outcome [1] was “inactive” and the AC50 [2] was active: 14.9 µM and active: 12.2 µM and active: 16.3 µM. The AC50 [6] was active: 3.15 µM and active: 3.46 µM and active: 3.72 µM and the AC50 [11] was active: 3.83 µM.

`Oc1ccc(-c2ccccc2)c(Cl)c1` was tested, and the outcome [1] was “inactive”, the AC50 [10] was active: 16.3 µM and the outcome [4] was “inactive”.

`CCCCCC1C(=O)CCC1CC(=O)OC` (stereo unspecified) was tested, and the AC50 [1] was inconclusive: 25 µM.

With `CCCc1ccc(OC)cc1` the AC50 [1] was inconclusive: 0.0943 µM.

With `O=C(OCCCCCCOC(=O)c1ccccc1)c1ccccc1` the outcome [1] was “inactive”, the outcome [12] was “inactive” and the outcome [7] was “inactive”.

In the case of `C#C[C@]1(O)CC[C@H]2[C@@H]3CCC4=CC(=O)CC[C@@H]4[C@H]3CC[C@@]21C`, the outcome [1] is reported as “inactive” and the AC50 [6] is reported as inconclusive: 25 µM.

In the case of `CC[C@@H]1C[C@H](N(Cc2cc(C(F)(F)F)cc(C(F)(F)F)c2)C(C)=O)c2cc(C(F)(F)F)ccc2N1C(=O)OC(C)C`, the outcome [1] is reported as “inactive”.

`CN(C)c1ccc2nc3ccc(=[N+](C)C)cc-3sc2c1` was tested, and the AC50 [1] was active: 32.7 µM, the AC50 [2] was active: 7.57 µM and the AC50 [9] was inconclusive: 11.5 µM.

`OC1CCC(C2CCCCC2)CC1` (stereo unspecified) was tested, and the AC50 [1] was inconclusive: 25 µM, the AC50 [13] was inconclusive: 25 µM and the AC50 [4] was inconclusive: 50 nM and inconclusive: 25 µM. For the same compound, the outcome [4] was “inactive”.

With `N#C[C@@H]1CC(F)(F)CN1C(=O)CNC1CC2CCC(C1)N2c1ncccn1` (stereo partly specified) the AC50 [1] was inconclusive: 0.137 µM, the AC50 [5] was inconclusive: 0.00229 µM and the AC50 [9] was inconclusive: 50 µM.
